Laboratory results taken from publication PMC7559818.
No constants are given. Whether binding was seen depends on the method and setting. In cells and extracts the contact can be indirect. Some binding calls cover weakened binding; strength is not graded here.

Sequences of proteins named here, by UniProt entry; tags and fusion partners are left off.
UniProt P51532: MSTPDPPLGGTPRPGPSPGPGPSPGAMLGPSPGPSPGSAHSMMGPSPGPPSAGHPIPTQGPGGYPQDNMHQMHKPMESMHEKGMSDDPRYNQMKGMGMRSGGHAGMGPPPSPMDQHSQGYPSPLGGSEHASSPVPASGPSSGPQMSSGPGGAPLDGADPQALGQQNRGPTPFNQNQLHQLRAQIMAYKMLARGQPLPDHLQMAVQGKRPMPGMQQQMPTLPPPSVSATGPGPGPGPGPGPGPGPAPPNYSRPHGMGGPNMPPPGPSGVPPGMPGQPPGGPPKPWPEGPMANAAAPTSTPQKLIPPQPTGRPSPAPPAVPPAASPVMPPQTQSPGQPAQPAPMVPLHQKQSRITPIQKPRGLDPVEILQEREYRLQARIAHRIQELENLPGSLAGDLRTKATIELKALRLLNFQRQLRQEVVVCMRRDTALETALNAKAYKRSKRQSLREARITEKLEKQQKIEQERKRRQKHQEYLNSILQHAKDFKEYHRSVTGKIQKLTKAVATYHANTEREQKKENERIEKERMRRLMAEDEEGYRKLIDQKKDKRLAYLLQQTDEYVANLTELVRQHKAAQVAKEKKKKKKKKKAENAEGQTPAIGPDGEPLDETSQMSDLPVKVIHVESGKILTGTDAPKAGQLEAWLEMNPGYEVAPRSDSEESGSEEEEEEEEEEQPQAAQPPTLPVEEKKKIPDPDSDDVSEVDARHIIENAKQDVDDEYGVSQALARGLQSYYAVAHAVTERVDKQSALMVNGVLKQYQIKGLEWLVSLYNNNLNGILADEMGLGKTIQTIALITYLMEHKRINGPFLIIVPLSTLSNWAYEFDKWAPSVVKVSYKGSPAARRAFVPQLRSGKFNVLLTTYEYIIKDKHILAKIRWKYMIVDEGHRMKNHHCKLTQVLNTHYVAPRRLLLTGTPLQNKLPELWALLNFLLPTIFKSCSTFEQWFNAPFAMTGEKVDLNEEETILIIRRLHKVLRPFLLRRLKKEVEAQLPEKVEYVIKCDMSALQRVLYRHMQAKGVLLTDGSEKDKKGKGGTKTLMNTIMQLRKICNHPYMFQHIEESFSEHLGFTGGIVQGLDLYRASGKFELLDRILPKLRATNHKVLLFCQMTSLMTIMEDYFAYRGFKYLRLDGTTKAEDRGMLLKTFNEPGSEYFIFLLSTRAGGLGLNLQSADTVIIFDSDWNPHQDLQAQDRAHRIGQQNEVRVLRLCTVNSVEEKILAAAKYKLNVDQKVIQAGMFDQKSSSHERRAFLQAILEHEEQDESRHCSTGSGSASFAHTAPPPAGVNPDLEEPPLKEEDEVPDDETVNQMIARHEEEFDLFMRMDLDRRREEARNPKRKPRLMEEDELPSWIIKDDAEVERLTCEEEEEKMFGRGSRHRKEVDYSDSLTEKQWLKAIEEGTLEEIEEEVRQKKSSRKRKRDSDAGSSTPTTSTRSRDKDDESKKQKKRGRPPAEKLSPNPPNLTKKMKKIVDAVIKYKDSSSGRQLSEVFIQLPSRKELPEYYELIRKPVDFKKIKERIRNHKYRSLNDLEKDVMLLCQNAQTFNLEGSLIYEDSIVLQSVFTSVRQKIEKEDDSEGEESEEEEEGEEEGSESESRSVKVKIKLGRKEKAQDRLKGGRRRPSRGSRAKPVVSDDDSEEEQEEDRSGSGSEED
UniProt Q13950: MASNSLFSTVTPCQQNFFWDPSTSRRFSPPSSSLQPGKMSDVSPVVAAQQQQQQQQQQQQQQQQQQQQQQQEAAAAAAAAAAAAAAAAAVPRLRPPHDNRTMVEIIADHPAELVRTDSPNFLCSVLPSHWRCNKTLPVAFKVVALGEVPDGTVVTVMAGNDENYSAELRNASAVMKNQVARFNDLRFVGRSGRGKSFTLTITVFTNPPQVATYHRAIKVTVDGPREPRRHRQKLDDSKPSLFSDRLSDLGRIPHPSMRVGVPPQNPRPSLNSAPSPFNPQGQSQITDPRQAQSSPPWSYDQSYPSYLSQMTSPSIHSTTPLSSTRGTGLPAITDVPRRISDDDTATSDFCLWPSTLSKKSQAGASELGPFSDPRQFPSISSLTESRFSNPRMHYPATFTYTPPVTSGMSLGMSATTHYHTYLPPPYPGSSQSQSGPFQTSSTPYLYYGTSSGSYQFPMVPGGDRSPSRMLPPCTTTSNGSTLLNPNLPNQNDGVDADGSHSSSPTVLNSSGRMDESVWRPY

Target: BRG1 (endogenous, RKO cells) (human (endogenous in RKO)) (UniProt P51532)
Assay: co-IP; endogenous proteins in RKO cell lysates; IP with anti-RUNX2, anti-BRG1 or control IgG antibody (1 ug per mg protein, 4 °C, 8-12 h), Protein A/G beads; western blot

- binding: binds
Substance: RUNX2 (endogenous, RKO cells) (from UniProt Q13950 1-521)
